Reference: patent publication US20190269788A1
Results are given in words; binding and its absence hold for the method and conditions named. Some entries that bind do so weakly or less than the wild type.

Protein sequences, listed by entry. Tags and fused reporters are not part of them. Lines headed by an entry give the natural chain unless they say otherwise; changes in a name come on top.
UniProt P08069: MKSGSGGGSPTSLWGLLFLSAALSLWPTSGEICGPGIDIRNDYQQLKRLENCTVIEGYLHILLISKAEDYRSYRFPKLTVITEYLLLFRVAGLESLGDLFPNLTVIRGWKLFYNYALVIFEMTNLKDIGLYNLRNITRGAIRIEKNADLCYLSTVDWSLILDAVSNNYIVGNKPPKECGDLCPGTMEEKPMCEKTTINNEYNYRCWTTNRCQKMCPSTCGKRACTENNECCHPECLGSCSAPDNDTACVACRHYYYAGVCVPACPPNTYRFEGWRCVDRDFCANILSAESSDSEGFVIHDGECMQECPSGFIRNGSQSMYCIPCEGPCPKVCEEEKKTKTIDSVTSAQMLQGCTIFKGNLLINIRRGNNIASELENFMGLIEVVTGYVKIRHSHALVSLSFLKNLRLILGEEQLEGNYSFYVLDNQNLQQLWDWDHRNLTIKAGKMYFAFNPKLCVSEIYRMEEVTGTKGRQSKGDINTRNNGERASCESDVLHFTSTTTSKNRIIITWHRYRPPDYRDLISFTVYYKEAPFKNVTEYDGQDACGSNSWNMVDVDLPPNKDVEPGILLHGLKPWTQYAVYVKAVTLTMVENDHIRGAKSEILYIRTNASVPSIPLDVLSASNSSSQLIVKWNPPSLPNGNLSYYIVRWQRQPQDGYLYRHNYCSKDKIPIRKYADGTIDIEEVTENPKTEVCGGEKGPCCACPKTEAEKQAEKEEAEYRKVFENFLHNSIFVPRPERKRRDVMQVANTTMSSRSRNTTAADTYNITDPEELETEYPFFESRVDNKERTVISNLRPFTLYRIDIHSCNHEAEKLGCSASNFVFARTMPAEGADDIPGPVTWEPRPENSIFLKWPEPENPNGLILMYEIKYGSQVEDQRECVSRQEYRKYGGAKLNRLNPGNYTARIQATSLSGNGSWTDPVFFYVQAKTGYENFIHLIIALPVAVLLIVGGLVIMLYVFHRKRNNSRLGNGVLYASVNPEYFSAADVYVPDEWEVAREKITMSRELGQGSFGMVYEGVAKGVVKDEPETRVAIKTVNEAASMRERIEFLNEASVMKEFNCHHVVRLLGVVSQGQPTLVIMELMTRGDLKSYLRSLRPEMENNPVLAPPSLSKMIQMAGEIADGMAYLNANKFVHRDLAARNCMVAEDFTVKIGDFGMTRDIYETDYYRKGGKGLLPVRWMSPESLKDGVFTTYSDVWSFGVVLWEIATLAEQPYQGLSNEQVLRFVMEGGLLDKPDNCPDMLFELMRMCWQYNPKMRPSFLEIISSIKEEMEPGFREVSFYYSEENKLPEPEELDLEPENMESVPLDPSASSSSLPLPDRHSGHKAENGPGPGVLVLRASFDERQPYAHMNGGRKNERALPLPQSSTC

What was measured:
[1] = target: human IGF-1R, native, on MCF-7 cells or on hIGF-1R transfected cells (human) (UniProt P08069); test: FACS on MCF-7 cells
[2] = target: human IGF-1R, native, on MCF-7 cells or on hIGF-1R transfected cells (human) (UniProt P08069); test: FACS titration on MCF-7 cells

binding [1]: binds
binding [2]: binds
B1: hz208F2 VH3/VL3 (antibody, human IgG1, kappa, V domains shown)
VH: QVQLVQSGAEVKKPGASVKMSCKASGYTFTSYYIYWVKQAPGQGLEWLGWIWPGDGSTKYNEKFQGRVTLTADKSSNTAYMFLSSLRSEDTAVYFCASPMITPNYAMDYWGQGTLVTVSS
VL: DIQMTQSPSSLSASVGDRVTISCRASQDISKYLNWYQQKPGKAPKLLIYYTSRLHSGVPSRFSGRGSGTDYSLTISNLQPEDFATYFCQQGSTLPYTFGGGTKVEIKR
